{"source": "PubChem BioAssay AID504467", "about": "(National Center for Advancing Translational Sciences (NCATS), 2011)", "note": "In all, about 330,000 compounds went through this assay and about 7,700 (2.3%) were called active. This list was built around the results that the source calls inconclusive (neither active nor inactive); the mix of calls is not that of the screen. Calls follow the shape of the dose curve; as a rule, active = well fitted inhibition curve with a large enough effect; inconclusive = small, poorly fitted or top-dose-only effect, or effect the other way; inactive = flat fitted curve, though single readings scatter. Potencies of inconclusive entries are doubtful fits and often do not repeat. Potency is read from the fitted curve at half-maximal effect.", "data": [{"test": "qHTS screen for small molecules that inhibit ELG1-dependent DNA repair in human embryonic kidney (HEK293T) cells expressing luciferase-tagged ELG1; also: nearly all actives have a fitted effect of over 55% in size", "conditions": "HEK293T ELG1-luciferase reporter, luminescence, 16 h, DNA damage induced by 5-fluorouridine; series mostly up to 46.1 µM", "outline": "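Luminescence from the luciferase reporter, measured 30 min after ONE-Glo reagent at room temperature, was the read-out. Beforehand, 2,000 cells per well were exposed for 16 hr at 37 °C to 5-fluorouridine together with compound or vehicle.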", "values": [{"smiles": "CC1CCN(S(=O)(=O)c2ccc(NC(=S)NC(=O)c3ccc(Cl)cc3)cc2)CC1", "Potency": "inconclusive: 6.51 µM [inhibitor, single point]"}, {"smiles": "Cc1nc(SCc2nc3c([N+](=O)[O-])cccc3[nH]2)c2oc3ccccc3c2n1", "Potency": "inconclusive: 29.1 µM [activator, single point]"}, {"smiles": "COc1ccccc1N1CCN(CC(=O)Nc2c(C)n[nH]c2C)CC1", "Potency": "inactive"}, {"smiles": "COc1cccc(NC(=O)CCCCCN2C(=O)[C@@H]3Cc4ccccc4CN3C2=O)c1", "Potency": "inconclusive: 20.6 µM [inhibitor, partial curve]"}, {"smiles": "Cc1ccc(C)c(OC(=O)C2CSC3(C)CCC(=O)N23)c1C", "note": "(centres undefined)", "Potency": "inactive"}, {"smiles": "CC(C)n1c(N2CCN(CC(=O)Nc3ccc4c(c3)OCCO4)CC2)nc2ccccc21", "Potency": "inconclusive: 35.5 µM [inhibitor, single point]"}, {"smiles": "COC(=O)c1sccc1NC(=O)CN1CCN(c2ccc(F)cc2)CC1", "Potency": "inconclusive: 29.1 µM [inhibitor, single point]"}, {"smiles": "Cc1ccc2cccc(OCC(=O)c3cc(C)n(Cc4ccco4)c3C)c2n1", "Potency": "inactive"}, {"smiles": "O=C(CCN1CCN(c2ccc([N+](=O)[O-])cc2)CC1)c1ccc(Cl)cc1", "Potency": "inactive"}, {"smiles": "O=C(Nc1ccc(Br)cc1)N1CCCC(O)C1", "note": "(centres undefined)", "Potency": "inconclusive: 18.3 µM [activator, single point]"}, {"smiles": "Cc1c(C)c2c(OCC(=O)NCC(O)c3ccccc3)cc3c(c2oc1=O)CCC(C)(C)O3", "note": "(centres undefined)", "Potency": "inconclusive: 25.9 µM [inhibitor, single point]"}, {"smiles": "Cc1cccc(-c2n[nH]c(=S)n2/N=C/C=C/c2ccco2)c1", "Potency": "inactive"}, {"smiles": "COc1ccc(N2CCN(C(=O)CCc3ccc(S(=O)(=O)NC(C)C)cc3)CC2)cc1", "Potency": "inconclusive: 16.4 µM [inhibitor, partial curve, poor fit]"}, {"smiles": "COc1cc(/C=N/Nc2ccc(Cl)cc2)ccc1OC(=O)c1cccs1", "Potency": "inconclusive: 29.1 µM [activator, single point]"}, {"smiles": "Cc1cc(C)c(NC(=O)CO/N=C2\\CCCc3nonc32)c(C)c1", "Potency": "inactive"}, {"smiles": "Cc1cc(C(=O)N2CC=C(c3ccccc3)CC2)c2ccccc2n1", "Potency": "inconclusive: 0.651 µM [inhibitor, full curve, poor fit]"}, {"smiles": "O=C(O)c1ccc2c(c1)C(=O)/C(=C/c1ccccc1)C2=O", "Potency": "inactive"}, {"smiles": "CN1CCN(C(=O)c2cc3nc(-c4ccccc4)cc(-c4ccccc4)n3n2)CC1", "Potency": "inconclusive: 16.4 µM [inhibitor, single point]"}, {"smiles": "Cc1c(OCC(=O)N2CCC(C(=O)O)CC2)ccc2c3c(c(=O)oc12)CCCC3", "Potency": "inconclusive: 29.1 µM [inhibitor, single point]"}, {"smiles": "CC(NC(=O)c1ccccc1)c1nnc(SCC(=O)Nc2nnc(C3CC3)s2)n1C", "note": "(centres undefined)", "Potency": "inactive"}, {"smiles": "CC[C@]12c3[nH]c4cc(-c5ccco5)ccc4c3CCN1C(=O)[C@@H](CC(=O)NCCCOC)C[C@@H]2C(=O)N1CCN(C(=O)c2ccco2)CC1", "Potency": "inactive"}, {"smiles": "O=C1c2cccnc2C(=O)N1c1cccc(-c2nc3ccccc3o2)c1", "Potency": "inconclusive: 3.26 µM [activator, full curve, poor fit]"}, {"smiles": "O=C(NCCN1CCOCC1)c1ccc2c(c1)N(Cc1ccccc1F)C(=O)c1ccccc1S2", "Potency": "inactive"}, {"smiles": "COc1ccc(NC(=O)CCc2nnc3ccc(N4CCC5(CC4)OCCO5)nn23)cc1", "Potency": "inactive"}, {"smiles": "Cc1nn(Cc2ccccc2Cl)c(C)c1NC(=O)CCCn1nc(C)c([N+](=O)[O-])c1C", "Potency": "inconclusive: 11.2 µM [inhibitor, single point]"}, {"smiles": "CCOC(=O)c1c(C)[nH]c(N=Nc2ccccc2)c1C", "Potency": "inconclusive: 2.59 µM [activator, partial curve]"}, {"smiles": "C=CC[C@H](CC(=O)NCCO)C(=O)N[C@H](COC(=O)[C@@H](CC=C)Cc1ccc(F)cc1)Cc1ccccc1", "Potency": "inconclusive: 20.6 µM [inhibitor, single point]"}, {"smiles": "CNc1ccccc1C(=O)OCC(=O)c1ccccc1", "Potency": "inconclusive: 18.4 µM [activator, partial curve]"}, {"smiles": "N#Cc1c(N2C(=O)Nc3ccccc3N2O)sc2c1CCCCCC2", "Potency": "inconclusive: 29.1 µM [activator, single point]"}, {"smiles": "Cc1ccc(NC(=O)c2ccc(Cl)c(NC(=O)c3cccs3)c2)cc1", "Potency": "inconclusive: 20.6 µM [activator, single point]"}, {"smiles": "Cc1ccc(/C=C2\\OC(=O)c3ccccc32)cc1", "Potency": "inconclusive: 16.4 µM [activator, partial curve]"}, {"smiles": "COc1ccc(/C=C/C(=O)O/N=C(\\N)c2ccccn2)cc1OC", "Potency": "inconclusive: 4.61 µM [activator, partial curve]"}, {"smiles": "NC(=S)N/N=C/c1ccccc1OC(=O)c1cc2ccccc2oc1=O", "Potency": "inconclusive: 20.6 µM [activator, single point]"}, {"smiles": "COc1ccccc1C1c2ccc3ccccc3c2Oc2ncn(CCN(C)C)c(=N)c21", "note": "(centres undefined)", "Potency": "inconclusive: 3.66 µM [inhibitor, partial curve, poor fit]"}, {"smiles": "C=CCN1CCN(C(=O)c2cc3c(s2)CCCC3)CC1", "Potency": "inconclusive: 29.1 µM [activator, single point]"}, {"smiles": "c1ccc(CSc2ncccn2)cc1", "Potency": "inactive"}, {"smiles": "Cc1cc(O)c(C=Nc2ccc(N3CCOCC3)cc2)c(C)c1Cl", "Potency": "inactive"}, {"smiles": "CCNC(=O)COc1ccc(C=O)cc1OC", "Potency": "inconclusive: 18.4 µM [activator, partial curve, poor fit]"}, {"smiles": "CN(Cc1ccccc1)c1ccc(C(=O)O)cc1[N+](=O)[O-]", "Potency": "inactive"}, {"smiles": "COc1ccccc1NC(=O)Nc1ccc(N2CCOCC2)cc1", "Potency": "inconclusive: 18.3 µM [activator, partial curve]"}, {"smiles": "CC(C)(C)c1ccc(OCC(=O)NCC(c2cccs2)N2CCOCC2)cc1", "note": "(centres undefined)", "Potency": "inactive"}, {"smiles": "Cc1c(CCC(=O)O)c(=O)oc2cc(OCc3cccc(Cl)c3)ccc12", "Potency": "inconclusive: 23.1 µM [activator, partial curve, poor fit]"}, {"smiles": "Cc1ccc(-c2nc(CSCC(=O)N3CCCC3)c(C)o2)cc1", "Potency": "inactive"}, {"smiles": "Cc1ccc(OCCCC(=O)N2CCOCC2)c(C)c1", "Potency": "inconclusive: 20.6 µM [activator, partial curve]"}]}]}
